In patent US9290535B2, “Uridine-based gadolinium complex and MRI contrast agent including the same” (Korea University Researchand Business Foundation, priority 2011, dated 2016):
Some of these results come from one statement about several compounds together.

Test: MR phantom imaging, T1-weighted spin-echo, 1.5 T
Format: physicochemical
Conditions: PBS, 63.8 MHz (1.5 T), 36° C., 0-1.0 mM

SMILES	Brightness in T1-weighted MR phantom image
O=C([O-])CN(CCN(CCN(CC(=O)[O-])CC(=O)[O-])C[C@H]1O[C@@H](n2ccc(=O)[nH]c2=O)[C@H](O)[C@@H]1O)CC(=O)[O-].[Gd+3] [LGd1]	brighter contrast than Gd-DTPA
CCCCCCCC(=O)O[C@@H]1[C@H](OC(=O)CCCCCCC)[C@@H](CN(CCN(CC(=O)[O-])CC(=O)[O-])CCN(CC(=O)[O-])CC(=O)[O-])O[C@H]1n1ccc(=O)[nH]c1=O.[Gd+3] [LGd2]	brighter contrast than Gd-DTPA
CCCCCCCCCC(=O)O[C@@H]1[C@H](OC(=O)CCCCCCCCC)[C@@H](CN(CCN(CC(=O)[O-])CC(=O)[O-])CCN(CC(=O)[O-])CC(=O)[O-])O[C@H]1n1ccc(=O)[nH]c1=O.[Gd+3] [LGd3]	brighter contrast than Gd-DTPA
CCCCCCCCCCCC(=O)O[C@@H]1[C@H](OC(=O)CCCCCCCCCCC)[C@@H](CN(CCN(CC(=O)[O-])CC(=O)[O-])CCN(CC(=O)[O-])CC(=O)[O-])O[C@H]1n1ccc(=O)[nH]c1=O.[Gd+3] [LGd4]	brighter contrast than Gd-DTPA
